Measured values: paper PMC4066765, “Insights into how Spt5 functions in transcription elongation and repressing transcription coupled DNA repair” (Nucleic Acids Research, 2014)
These are yes or no findings as the source states them, for the method shown. In cells and extracts the contact can be indirect. Some binding calls cover weakened binding; strength is not graded here. Sequences can lack the tags named with a protein.

Amino acid sequences for entries named in this document (tags omitted).
UniProt P04050: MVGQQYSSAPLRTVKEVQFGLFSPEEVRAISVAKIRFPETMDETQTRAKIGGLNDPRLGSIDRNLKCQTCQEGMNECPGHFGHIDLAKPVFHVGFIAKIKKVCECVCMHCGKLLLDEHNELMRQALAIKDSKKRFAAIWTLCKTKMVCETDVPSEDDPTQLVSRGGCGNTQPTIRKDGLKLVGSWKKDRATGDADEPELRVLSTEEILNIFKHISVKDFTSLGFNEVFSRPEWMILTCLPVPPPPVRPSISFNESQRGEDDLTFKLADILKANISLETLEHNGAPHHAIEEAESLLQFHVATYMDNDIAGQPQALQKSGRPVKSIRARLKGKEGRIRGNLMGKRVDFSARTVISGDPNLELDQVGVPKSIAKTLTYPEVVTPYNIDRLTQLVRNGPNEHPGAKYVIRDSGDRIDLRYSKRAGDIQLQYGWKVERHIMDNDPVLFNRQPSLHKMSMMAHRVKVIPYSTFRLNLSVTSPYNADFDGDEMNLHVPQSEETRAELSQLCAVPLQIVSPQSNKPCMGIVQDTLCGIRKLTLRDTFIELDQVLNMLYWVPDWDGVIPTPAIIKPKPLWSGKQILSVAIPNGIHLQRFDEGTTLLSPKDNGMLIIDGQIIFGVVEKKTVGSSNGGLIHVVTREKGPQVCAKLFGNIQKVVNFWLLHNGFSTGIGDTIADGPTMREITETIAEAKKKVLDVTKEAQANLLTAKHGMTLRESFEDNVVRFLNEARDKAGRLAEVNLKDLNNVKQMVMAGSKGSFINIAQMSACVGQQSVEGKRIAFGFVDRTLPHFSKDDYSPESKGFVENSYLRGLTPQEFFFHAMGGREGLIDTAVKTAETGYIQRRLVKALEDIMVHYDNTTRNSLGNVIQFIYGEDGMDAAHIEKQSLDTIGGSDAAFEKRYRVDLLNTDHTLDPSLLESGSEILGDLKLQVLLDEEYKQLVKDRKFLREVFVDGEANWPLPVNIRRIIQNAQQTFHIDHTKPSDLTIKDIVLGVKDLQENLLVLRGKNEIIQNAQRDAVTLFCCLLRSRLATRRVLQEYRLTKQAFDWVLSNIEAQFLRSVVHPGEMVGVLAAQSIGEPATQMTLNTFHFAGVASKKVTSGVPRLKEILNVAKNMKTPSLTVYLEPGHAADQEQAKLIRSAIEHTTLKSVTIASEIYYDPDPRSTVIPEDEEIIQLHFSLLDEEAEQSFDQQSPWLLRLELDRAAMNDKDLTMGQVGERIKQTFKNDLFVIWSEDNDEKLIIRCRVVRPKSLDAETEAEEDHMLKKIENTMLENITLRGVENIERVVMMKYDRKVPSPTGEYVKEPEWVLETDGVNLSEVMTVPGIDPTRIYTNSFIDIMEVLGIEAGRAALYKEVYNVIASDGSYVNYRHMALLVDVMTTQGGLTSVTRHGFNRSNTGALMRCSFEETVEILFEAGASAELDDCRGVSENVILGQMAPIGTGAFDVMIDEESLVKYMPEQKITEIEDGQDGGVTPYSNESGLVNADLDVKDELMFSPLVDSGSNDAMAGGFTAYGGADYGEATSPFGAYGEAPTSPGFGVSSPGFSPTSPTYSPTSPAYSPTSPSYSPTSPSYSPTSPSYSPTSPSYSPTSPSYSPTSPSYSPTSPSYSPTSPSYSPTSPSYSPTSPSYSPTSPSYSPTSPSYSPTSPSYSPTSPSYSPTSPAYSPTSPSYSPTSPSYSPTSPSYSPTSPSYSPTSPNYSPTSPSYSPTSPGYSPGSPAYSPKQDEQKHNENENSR

B1: 3×Myc-tagged Spt5 (full-length, wild type) (protein, UniProt P27692 1-1063)
chain: MSDNSDTNVSMQDHDQQFADPVVVPQSTDTKDENTSDKDTVDSGNVTTTESTERAESTSNIPPLDGEEKEAKSEPQQPEDNAETAATEQVSSSNGPATDDAQATLNTDSSEANEIVKKEEGSDERKRPREEDTKNSDGDTKDEGDNKDEDDDEDDDDDDDDEDDDDEAPTKRRRQERNRFLDIEAEVSDDEDEDEDEEDSELVREGFITHGDDEDDEASAPGARRDDRLHRQLDQDLNKTSEEDAQRLAKELRERYGRSSSKQYRAAAQDGYVPQRFLLPSVDTATIWGVRCRPGKEKELIRKLLKKKFNLDRAMGKKKLKILSIFQRDNYTGRIYIEAPKQSVIEKFCNGVPDIYISQKLLIPVQELPLLLKPNKSDDVALEEGSYVRIKRGIYKGDLAMVDQISENNLEVMLKIVPRLDYGKFDEIDPTTQQRKSRRPTFAHRAPPQLFNPTMALRLDQANLYKRDDRHFTYKNEDYIDGYLYKSFRIQHVETKNIQPTVEELARFGSKEGAVDLTSVSQSIKKAQAAKVTFQPGDRIEVLNGEQRGSKGIVTRTTKDIATIKLNGFTTPLEFPISTLRKIFEPGDHVTVINGEHQGDAGLVLMVEQGQVTFMSTQTSREVTITANNLSKSIDTTATSSEYALHDIVELSAKNVACIIQAGHDIFKVIDETGKVSTITKGSILSKINTARARVSSVDANGNEIKIGDTIVEKVGSRREGQVLYIQTQQIFVVSKKIVENAGVFVVNPSNVEAVASKDNMLSNKMDLSKMNPEIISKMGPPSSKTFQQPIQSRGGREVALGKTVRIRSAGYKGQLGIVKDVNGDKATVELHSKNKHITIDKHKLTYYNREGGEGITYDELVNRRGRVPQARMGPSYVSAPRNMATGGIAAGAAATSSGLSGGMTPGWSSFDGGKTPAVNAHGGSGGGGVSSWGGASTWGGQGNGGASAWGGAGGGASAWGGQGTGATSTWGGASAWGNKSSWGGASTWASGGESNGAMSTWGGTGDRSAYGGASTWGGNNNNKSTRDGGASAWGNQDDGNRSAWNNQGNKSNYGGNSTWGGH
B2: 3×Myc-tagged KOW4-deleted Spt5 (protein, UniProt P27692)
chain: MSDNSDTNVSMQDHDQQFADPVVVPQSTDTKDENTSDKDTVDSGNVTTTESTERAESTSNIPPLDGEEKEAKSEPQQPEDNAETAATEQVSSSNGPATDDAQATLNTDSSEANEIVKKEEGSDERKRPREEDTKNSDGDTKDEGDNKDEDDDEDDDDDDDDEDDDDEAPTKRRRQERNRFLDIEAEVSDDEDEDEDEEDSELVREGFITHGDDEDDEASAPGARRDDRLHRQLDQDLNKTSEEDAQRLAKELRERYGRSSSKQYRAAAQDGYVPQRFLLPSVDTATIWGVRCRPGKEKELIRKLLKKKFNLDRAMGKKKLKILSIFQRDNYTGRIYIEAPKQSVIEKFCNGVPDIYISQKLLIPVQELPLLLKPNKSDDVALEEGSYVRIKRGIYKGDLAMVDQISENNLEVMLKIVPRLDYGKFDEIDPTTQQRKSRRPTFAHRAPPQLFNPTMALRLDQANLYKRDDRHFTYKNEDYIDGYLYKSFRIQHVETKNIQPTVEELARFGSKEGAVDLTSVSQSIKKAQAAKVTFQPGDRIEVLNGEQRGSKGIVTRTTKDIATIKLNGFTTPLEFPISTLRKIFEPGDHVTVINGEHQGDAGLVLMVEQGQVTFMSTQTSREVTITANNLSKSIDTTATSSEYALHDIVELSAKNVACIIQAGHDIFKVIDETGKVSTITKGSILSKINTARARVSSVDANGNEIMDLSKMNPEIISKMGPPSSKTFQQPIQSRGGREVALGKTVRIRSAGYKGQLGIVKDVNGDKATVELHSKNKHITIDKHKLTYYNREGGEGITYDELVNRRGRVPQARMGPSYVSAPRNMATGGIAAGAAATSSGLSGGMTPGWSSFDGGKTPAVNAHGGSGGGGVSSWGGASTWGGQGNGGASAWGGAGGGASAWGGQGTGATSTWGGASAWGNKSSWGGASTWASGGESNGAMSTWGGTGDRSAYGGASTWGGNNNNKSTRDGGASAWGNQDDGNRSAWNNQGNKSNYGGNSTWGGH
B3: 3×Myc-tagged KOW4-5-deleted Spt5 (protein, UniProt P27692)
chain: MSDNSDTNVSMQDHDQQFADPVVVPQSTDTKDENTSDKDTVDSGNVTTTESTERAESTSNIPPLDGEEKEAKSEPQQPEDNAETAATEQVSSSNGPATDDAQATLNTDSSEANEIVKKEEGSDERKRPREEDTKNSDGDTKDEGDNKDEDDDEDDDDDDDDEDDDDEAPTKRRRQERNRFLDIEAEVSDDEDEDEDEEDSELVREGFITHGDDEDDEASAPGARRDDRLHRQLDQDLNKTSEEDAQRLAKELRERYGRSSSKQYRAAAQDGYVPQRFLLPSVDTATIWGVRCRPGKEKELIRKLLKKKFNLDRAMGKKKLKILSIFQRDNYTGRIYIEAPKQSVIEKFCNGVPDIYISQKLLIPVQELPLLLKPNKSDDVALEEGSYVRIKRGIYKGDLAMVDQISENNLEVMLKIVPRLDYGKFDEIDPTTQQRKSRRPTFAHRAPPQLFNPTMALRLDQANLYKRDDRHFTYKNEDYIDGYLYKSFRIQHVETKNIQPTVEELARFGSKEGAVDLTSVSQSIKKAQAAKVTFQPGDRIEVLNGEQRGSKGIVTRTTKDIATIKLNGFTTPLEFPISTLRKIFEPGDHVTVINGEHQGDAGLVLMVEQGQVTFMSTQTSREVTITANNLSKSIDTTATSSEYALHDIVELSAKNVACIIQAGHDIFKVIDETGKVSTITKGSILSKINTARARVSSVDANGNEINREGGEGITYDELVNRRGRVPQARMGPSYVSAPRNMATGGIAAGAAATSSGLSGGMTPGWSSFDGGKTPAVNAHGGSGGGGVSSWGGASTWGGQGNGGASAWGGAGGGASAWGGQGTGATSTWGGASAWGNKSSWGGASTWASGGESNGAMSTWGGTGDRSAYGGASTWGGNNNNKSTRDGGASAWGNQDDGNRSAWNNQGNKSNYGGNSTWGGH

Biological target: Rpb1, largest subunit of RNA polymerase II (S. cerevisiae) (UniProt P04050)
Assay: co-IP; chromatin fraction of log phase yeast cells solubilised by sonication in 50 mM HEPES pH 7.5, 140 mM NaCl, 1% Triton X-100, 0.1% sodium deoxycholate, 1 mM EDTA, 0.1% SDS; immunoprecipitated with 4 μg anti-Rpb1 8WG16; blots with 8WG16, 2Y14 and anti-Myc; cells expressing full-length, KOW4-deleted or KOW4-5-deleted Spt5

Row | Binder | binding
1 | B1 | binds
2 | B2 | binds
3 | B3 | binds
